# For at least one entry, the source does not settle the construct or the ends of the probe. Results from cells or extracts need not show a direct contact.
# Amino acid sequences for entries named in this document (tags omitted). A change or cut given only in a name is not applied to a line headed by its entry.
# UniProt P42225: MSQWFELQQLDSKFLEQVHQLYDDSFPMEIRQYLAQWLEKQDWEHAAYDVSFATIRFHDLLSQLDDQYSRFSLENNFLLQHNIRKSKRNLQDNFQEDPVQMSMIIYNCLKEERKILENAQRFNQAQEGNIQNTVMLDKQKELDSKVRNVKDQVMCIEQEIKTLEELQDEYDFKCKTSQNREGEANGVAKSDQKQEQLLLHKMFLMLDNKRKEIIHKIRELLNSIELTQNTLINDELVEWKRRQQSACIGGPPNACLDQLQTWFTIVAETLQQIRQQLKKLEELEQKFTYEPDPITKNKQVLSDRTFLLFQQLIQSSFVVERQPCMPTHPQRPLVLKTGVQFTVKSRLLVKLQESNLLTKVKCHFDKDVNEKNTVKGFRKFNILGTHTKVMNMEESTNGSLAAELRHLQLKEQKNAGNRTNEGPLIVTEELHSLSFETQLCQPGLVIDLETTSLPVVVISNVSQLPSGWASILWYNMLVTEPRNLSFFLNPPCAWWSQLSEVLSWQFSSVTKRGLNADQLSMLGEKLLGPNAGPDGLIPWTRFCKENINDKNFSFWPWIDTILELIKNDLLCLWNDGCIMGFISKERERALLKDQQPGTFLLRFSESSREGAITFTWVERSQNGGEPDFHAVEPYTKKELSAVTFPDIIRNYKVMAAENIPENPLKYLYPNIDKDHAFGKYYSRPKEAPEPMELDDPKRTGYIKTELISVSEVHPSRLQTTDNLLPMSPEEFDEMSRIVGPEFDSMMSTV
# Target: STAT1 (IFNγ-activated, GAF homodimer) (Mus musculus (BMDC)) (UniProt P42225)
# Test: EMSA with supershift
# Settings: IFNγ 100 ng/ml, strong at 30 min, supershifted by anti-STAT1, not by normal IgG; EMSA: LightShift binding buffer, 200 fmol probe, 1 ug poly(I)-poly(C), 2.5% glycerol, 50 mM KCl, 1 mM DTT, 1 mM EDTA, 20 min; protein in an extract; label: 5' biotin on both strands
sequence,measurement,value
CATTTCGGGGAAATCGATC (double strand) [Irf-1 promoter GAS probe],binding result,binds
